These are yes or no findings as the source states them, for the method shown. Binding seen in cells or lysates may run through a third protein. Some entries that bind do so weakly or less than the wild type.
B1: Thioredoxin interacting protein (TXNIP), wild type, overexpressed from plasmid Txnip (protein, UniProt Q8BG60 1-397)
chain: MVMFKKIKSFEVVFNDPEKVYGSGEKVAGRVIVEVCEVTRVKAVRILACGVAKVLWMQGSQQCKQTLDYLRYEDTLLLEEQPTAGENEMVIMRPGNKYEYKFGFELPQGPLGTSFKGKYGCVDYWVKAFLDRPSQPTQEAKKNFEVMDLVDVNTPDLMAPVSAKKEKKVSCMFIPDGRVSVSARIDRKGFCEGDDISIHADFENTCSRIVVPKAAIVARHTYLANGQTKVFTQKLSSVRGNHIISGTCASWRGKSLRVQKIRPSILGCNILKVEYSLLIYVSVPGSKKVILDLPLVIGSRSGLSSRTSSMASRTSSEMSWIDLNIPDTPEAPPCYMDIIPEDHRLESPTTPLLDDVDDSQDSPIFMYAPEFQFMPPPTYTEVDPCVLNNNNNNNNVQ
B2: TXNIP, endogenous in GAN diet NASH mouse liver (protein, UniProt Q8BG60 1-397)
chain: B1 chain

Chains of the proteins cited; added tags and fusions are not shown. Lines headed by an entry give the natural chain unless they say otherwise; changes in a name come on top. Residues count along the entry.
UniProt P35639: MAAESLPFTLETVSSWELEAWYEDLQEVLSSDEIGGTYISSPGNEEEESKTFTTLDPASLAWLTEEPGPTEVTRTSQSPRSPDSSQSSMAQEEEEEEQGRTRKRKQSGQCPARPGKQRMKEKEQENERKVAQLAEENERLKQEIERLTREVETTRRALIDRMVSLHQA
CHOP ΔN36 truncation (lacking the first 36 amino acids, α-helix domain deletion): residues 37-168 of P35639
UniProt Q8CFI0: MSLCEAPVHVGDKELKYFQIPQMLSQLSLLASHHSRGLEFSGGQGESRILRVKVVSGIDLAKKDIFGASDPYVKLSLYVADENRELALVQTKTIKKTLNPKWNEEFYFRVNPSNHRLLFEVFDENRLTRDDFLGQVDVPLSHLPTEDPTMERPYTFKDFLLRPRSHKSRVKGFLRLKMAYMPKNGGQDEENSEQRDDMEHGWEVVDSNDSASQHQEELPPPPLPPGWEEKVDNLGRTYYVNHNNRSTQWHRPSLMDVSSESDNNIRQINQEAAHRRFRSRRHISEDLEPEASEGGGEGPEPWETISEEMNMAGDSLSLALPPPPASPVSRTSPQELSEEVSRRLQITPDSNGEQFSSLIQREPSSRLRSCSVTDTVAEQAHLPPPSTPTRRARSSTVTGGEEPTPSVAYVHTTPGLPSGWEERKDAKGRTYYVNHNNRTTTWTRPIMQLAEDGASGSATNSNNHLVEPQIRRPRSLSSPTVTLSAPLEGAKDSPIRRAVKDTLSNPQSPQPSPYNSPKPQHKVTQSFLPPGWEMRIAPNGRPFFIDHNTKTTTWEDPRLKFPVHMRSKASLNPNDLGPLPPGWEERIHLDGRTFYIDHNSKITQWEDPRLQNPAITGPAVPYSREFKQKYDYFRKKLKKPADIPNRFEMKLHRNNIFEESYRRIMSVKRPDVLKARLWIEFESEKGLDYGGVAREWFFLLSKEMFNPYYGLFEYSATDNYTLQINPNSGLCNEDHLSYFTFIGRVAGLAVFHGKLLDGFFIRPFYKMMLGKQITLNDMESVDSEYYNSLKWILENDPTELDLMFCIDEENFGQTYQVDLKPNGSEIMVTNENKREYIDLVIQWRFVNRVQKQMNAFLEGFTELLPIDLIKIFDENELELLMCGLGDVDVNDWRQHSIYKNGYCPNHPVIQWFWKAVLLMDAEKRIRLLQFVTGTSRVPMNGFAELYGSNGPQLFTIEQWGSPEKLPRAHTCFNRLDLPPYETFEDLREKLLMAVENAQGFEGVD

Key:
[1] = biological target: CCAAT/enhancer-binding protein homologous protein (CHOP), wild type, overexpressed from plasmid Chop-6x his (mouse) (UniProt P35639); experiment: co-IP; Hepa1-6 cells transfected with Txnip and Chop constructs (wild type or truncations; 5 μM MG132 for 4 h in Figure 6B); lysates immunoprecipitated with CHOP antibody or control IgG, blot with anti-TXNIP, anti-V5 or anti-CHOP
[2] = biological target: CHOP ΔN36 truncation (lacking the first 36 amino acids, α-helix domain deletion) (mouse) (UniProt P35639); experiment: as above
[3] = biological target: Nedd4 like E3 ubiquitin protein ligase (NEDD4L), endogenous in Hepa1-6 cells (mouse (endogenous in Hepa1-6)) (UniProt Q8CFI0); experiment: co-IP; Hepa1-6 cells transfected to overexpress Txnip for 24 h, then 5 μM MG132 for 4 h; lysates immunoprecipitated with NEDD4L antibody or control IgG, immunoblot
[4] = biological target: CHOP, endogenous in GAN diet NASH mouse liver (mouse (endogenous in liver)) (UniProt P35639); experiment: co-IP; GAN diet NASH mouse liver, endogenous proteins; precipitating antibody not stated

Row | Binder | binding [1] | binding [2] | binding [3] | binding [4]
1 | B1 | binds | no binding | binds | –
2 | B2 | – | – | – | binds
